Reference: US9382226B2, “Aldosterone synthase inhibitors” (Merck Sharp & Dohme Corp., priority 2010, dated 2016)
Some results were stated once for a whole list of compounds, not compound by compound.

Columns and labels:
human CYP11B2 = target: T1, human CYP11B2 (Homo sapiens, UniProt P19099); test: V79-Human-CYP11B2 cell assay (aldosterone formation, HTRF); format: cell-based; settings: V79 cells stably expressing human CYP11B2; substrate 125 nM 11-deoxycorticosterone; 3 hours
T1 construct: expressed in transfected cells; host or cells: V79 cells (clone V79-hCYP11B2-CLE9)
T1 sequence (P19099 25-503): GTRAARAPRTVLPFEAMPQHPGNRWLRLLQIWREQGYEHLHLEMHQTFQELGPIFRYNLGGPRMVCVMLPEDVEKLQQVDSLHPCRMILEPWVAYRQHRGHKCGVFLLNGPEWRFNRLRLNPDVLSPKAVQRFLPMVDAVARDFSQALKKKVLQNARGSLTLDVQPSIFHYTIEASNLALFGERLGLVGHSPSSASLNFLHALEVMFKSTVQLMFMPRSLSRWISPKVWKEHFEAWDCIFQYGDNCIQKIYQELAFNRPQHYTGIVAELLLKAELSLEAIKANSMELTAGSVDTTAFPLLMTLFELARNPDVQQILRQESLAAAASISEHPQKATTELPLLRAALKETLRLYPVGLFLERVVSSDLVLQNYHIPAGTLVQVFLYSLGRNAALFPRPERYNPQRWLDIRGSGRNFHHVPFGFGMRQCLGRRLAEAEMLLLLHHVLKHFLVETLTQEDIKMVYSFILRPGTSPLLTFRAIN
Protocol: (§1) Methods for V79-Human-CYP11B2 and V79-Human-CYP11B1 Assays: V79 cell lines stably expressing the either the human CYP11B2 or the human CYP11B1 enzyme were generated using a standard transfection protocol. V79 cells were transfected with plasmids pTriEx3-Hygro-hCyp11B2 or pTriEx3-Hygro-hCyp11B1 using Lipofectamine2000 reagent. V79 cells that stably express the human CYP11B2 or human CYP11B1 enzyme were selected for and maintained in DMEM supplemented with 10% FBS and 400 μg/mL hygromycin for ˜2 weeks. Single cell clones were generated by […] in DMEM supplemented with 10% FBS and 400 μg/mL hygromycin until single colonies were obtained. Clones V79-hCYP11B2-CLE9 and V79-hCYP11B1-8C7, were determined to produce the most aldosterone and cortisol, respectively, and were selected for inhibitor screening. For testing of inhibitors, cells were harvested at 80% confluency with 0.5% Trypsan-EDTA, washed once in PBS, and reconstituted in DMEM 0.1% BSA media at a cell concentration of 400,000 cells/mL. 25 μl of cells were added to a 384 well tissue culture treated plate and mixed with 0.25 μl of inhibitor or DMSO (1% final DMSO concentration) for 1 hour at 37° C., 5% CO2. After pre-incubation with inhibitor, the reaction was initiated by adding 5 μl of substrate (final concentration of 125 nM 11-deoxycorticosterone for the CYP11B2 assay or 250 nM 11-deoxycortisol for the CYP11B1 assay). The reaction was carried out for 3 hours at 37° C., 5% CO2 and was stopped by harvesting the supernatants. The amount of product in the supernatant (aldosterone for CYP11B2 assay and cortisol for the CYP11B1 assay) was measured using HTRF-based assay kit (Aldosterone HTRF-CisBio#64ALDPEB, Cortisol HTRF-CisBio #63IDC002-CORT). IC50's for the inhibitor were determined by plotting the amount of product formed against the concentration of inhibitor using sigmoidal dose-response curve (variable slope) fit in GraphPad.

human CYP11B1 = target: T2, human CYP11B1 (Homo sapiens, UniProt P15538); test: V79-Human-CYP11B1 cell assay (cortisol formation, HTRF); format: cell-based
T2 construct: expressed in transfected cells; host or cells: V79 cells (clone V79-hCYP11B1-8C7)
T2 sequence (P15538 25-503): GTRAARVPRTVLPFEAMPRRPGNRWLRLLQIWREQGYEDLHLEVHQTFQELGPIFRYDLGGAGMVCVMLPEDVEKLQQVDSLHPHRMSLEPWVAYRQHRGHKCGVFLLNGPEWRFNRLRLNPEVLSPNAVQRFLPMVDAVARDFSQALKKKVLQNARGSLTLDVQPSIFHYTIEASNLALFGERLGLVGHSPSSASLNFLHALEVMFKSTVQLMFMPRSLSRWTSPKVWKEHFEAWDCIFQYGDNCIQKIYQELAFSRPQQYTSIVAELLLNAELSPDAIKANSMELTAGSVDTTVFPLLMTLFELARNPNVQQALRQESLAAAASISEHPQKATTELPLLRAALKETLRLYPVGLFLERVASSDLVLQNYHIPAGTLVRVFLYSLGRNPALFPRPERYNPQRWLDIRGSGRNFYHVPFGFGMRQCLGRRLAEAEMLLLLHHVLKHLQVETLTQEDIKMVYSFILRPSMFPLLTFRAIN
Protocol: as §1, with “Clones V79-hCYP11B2-CLE9 and V79-hCYP11B1-8C7, were determined to produce the most aldosterone and cortisol, respectively, and were selected for inhibitor screening.” left out, “After pre-incubation with inhibitor, the reaction was initiated by adding 5 μl of substrate (final concentration of 125 nM 11-deoxycorticosterone for the CYP11B2 assay or 250 nM 11-deoxycortisol for the CYP11B1 assay).” left out

| IC50 (human CYP11B2) | fold greater inhibition of CYP11B2 as compared to CYP11B1 (selectivity) (human CYP11B1) | Compound |
| --- | --- | --- |
| < 1000 nM | at least 3 fold | CCn1c(-c2cncc3cccnc23)nc2cc(F)c(F)cc21 [Example 34, 8-(1-ethyl-5,6-difluoro-1H-benzimidazol-2-yl)-1,6-naphthyridine] |
| < 1000 nM | at least 3 fold | c1cncc(-c2nc3ccccc3n2C2CC2)c1 [Example 20, 1-cyclopropyl-2-(pyridin-3-yl)-1H-benzimidazole] |
| < 1000 nM | at least 3 fold | Fc1cncc(-c2nc3ccc(F)cc3n2C2CC2)c1 [Example 41, 1-cyclopropyl-6-fluoro-2-(5-fluoropyridin-3-yl)-1H-benzimidazole] |
| < 1000 nM | at least 3 fold | Fc1cccc2c1nc(-c1cccnc1)n2C1CC1 [Example 21, 1-cyclopropyl-4-fluoro-2-(pyridin-3-yl)-1H-benzimidazole] |
| < 1000 nM | at least 3 fold | CCn1c(-c2cncc3ccccc23)nc2cc(F)ccc21 [Example 26, 4-(1-ethyl-5-fluoro-1H-benzimidazol-2-yl)isoquinoline] |
| < 1000 nM | at least 3 fold | Fc1cc2nc(-c3cncc4ccccc34)n(C3CC3)c2cc1F [Example 32, 4-(1-cyclopropyl-5,6-difluoro-1H-benzimidazol-2-yl)isoquinoline] |
| < 1000 nM | at least 3 fold | Fc1ccc2nc(-c3cccnc3)n(CC3CC3)c2c1 [Example 18, 1-(cyclopropylmethyl)-6-fluoro-2-(pyridin-3-yl)-1H-benzimidazole] |
| < 1000 nM | at least 3 fold | COc1cncc(-c2nc3ccc(F)cc3n2C)c1 [Example 1, 6-Fluoro-2-(5-methoxypyridin-3-yl)-1-methyl-1 H-benzimidazole] |
| < 1000 nM | at least 3 fold | Fc1ccc2nc(-c3cncc(C(F)(F)F)c3)n(C3CC3)c2c1 [Example 44, 1-cyclopropyl-6-fluoro-2-[5-(trifluoromethyl)pyridin-3-yl]-1H-benzimidazole] |
| < 1000 nM | at least 3 fold | COC(C)(C)c1cncc(-c2nc3cc(F)ccc3n2C2CC2)c1 [Example 50, 1-cyclopropyl-5-fluoro-2-[5-(2-methoxypropan-2-yl)pyridin-3-yl]-1H-benzimidazole] |
| < 1000 nM | at least 3 fold | Fc1ccc2nc(-c3cccnc3)n(CC(F)(F)F)c2c1 [Example 14, 6-fluoro-2-(pyridin-3-yl)-1-(2,2,2-trifluoroethyl)-1H-benzimidazole] |
| < 1000 nM | at least 3 fold | Fc1cc(F)c2c(c1)nc(-c1cccnc1)n2C1CC1 [Example 31, 1-cyclopropyl-5,7-difluoro-2-(pyridin-3-yl)-1H-benzimidazole] |
| < 1000 nM | at least 3 fold | COc1ccc2nc(-c3cccnc3)n(C3CC3)c2c1 [Example 10, 1-cyclopropyl-6-methoxy-2-(pyridin-3-yl)-1H-benzimidazole] |
| < 1000 nM | at least 3 fold | COc1cncc(-c2nc3ccc(OC)cc3n2C)c1 [Example 5, 6-Methoxy-2-(5-methoxypyridin-3-yl)-1-methyl-1H-benzimidazole] |
| < 1000 nM | at least 3 fold | CCn1c(-c2cncc3ccccc23)nc2cc(F)c(F)cc21 [Example 29, 4-(1-ethyl-5,6-difluoro-1H-benzimidazol-2-yl)isoquinoline] |
| < 1000 nM | at least 3 fold | COC(C)(C)c1cncc(-c2nc3cc(F)cc(F)c3n2C2CC2)c1 [Example 52, 1-cyclopropyl-5,7-difluoro-2-[5-(2-methoxypropan-2-yl)pyridin-3-yl]-1H-benzimidazole] |
| < 1000 nM | at least 3 fold | CC(O)(c1cncc(-c2nc3cc(F)c(F)cc3n2C2CC2)c1)C(F)(F)F (centres unmarked) [Example 35, 2-[5-(1-cyclopropyl-5,6-difluoro-1H-benzimidazol-2-yl)pyridin-3-yl]-1,1,1-trifluoropropan-2-ol] |
| < 1000 nM | at least 3 fold | CC(=O)c1cncc(-c2nc3ccc(F)cc3n2C2CC2)c1 [Example 40, 1-[5-(1-cyclopropyl-6-fluoro-1H-benzimidazol-2-yl)pyridin-3-yl]ethanone] |
| < 1000 nM | at least 3 fold | COC(=O)c1cncc(-c2nc3ccc(F)cc3n2C2CC2)c1 [Example 42, methyl 5-(1-cyclopropyl-6-fluoro-1H-benzimidazol-2-yl)pyridine-3-carboxylate] |
| < 1000 nM | at least 3 fold | Fc1ccc2nc(-c3cccnc3)n(C3CC3)c2c1 [Example 9, 1-cyclopropyl-6-fluoro-2-(pyridin-3-yl)-1H-benzimidazole] |
| < 1000 nM | at least 3 fold | CC(O)(c1cncc(-c2nc3cc(F)cc(F)c3n2C2CC2)c1)C(F)(F)F (centres unmarked) [Example 36, 1-cyclopropyl-5,7-difluoro-2-[5-(1,1,1-trifluoro-2-methoxypropan-2-yl)pyridin-3-yl]-1H-benzimidazole] |
| < 1000 nM | at least 3 fold | COC(C)(C)c1cncc(-c2nc3cc(F)c(F)cc3n2C2CC2)c1 [Example 39, 1-cyclopropyl-5,6-difluoro-2-[5-(2-methoxypropan-2-yl)pyridin-3-yl]-1H-benzimidazole] |
